Test results: patent CN114805578A
Results are given in words; binding and its absence hold for the method and conditions named. Some binding calls cover weakened binding; strength is not graded here.

Chains of the proteins cited; added tags and fusions are not shown. Residues count along the entry.
UniProt Q8N423, residues 22-460: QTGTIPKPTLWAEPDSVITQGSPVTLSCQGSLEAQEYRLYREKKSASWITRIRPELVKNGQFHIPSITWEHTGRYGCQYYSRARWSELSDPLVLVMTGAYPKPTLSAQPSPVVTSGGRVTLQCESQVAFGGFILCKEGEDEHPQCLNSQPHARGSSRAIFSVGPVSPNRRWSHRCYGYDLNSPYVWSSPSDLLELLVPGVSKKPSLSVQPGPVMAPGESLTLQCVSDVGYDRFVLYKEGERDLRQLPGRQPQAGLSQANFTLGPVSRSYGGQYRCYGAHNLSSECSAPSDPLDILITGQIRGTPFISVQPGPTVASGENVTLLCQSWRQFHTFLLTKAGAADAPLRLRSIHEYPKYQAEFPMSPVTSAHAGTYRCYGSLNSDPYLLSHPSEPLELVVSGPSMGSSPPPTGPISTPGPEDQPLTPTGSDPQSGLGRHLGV

What was measured:
[1] = target: 白细胞免疫球蛋白样受体亚家族B成员2 (LILRB2, Leukocyte Immunoglobulin Like Receptor B2) (UniProt Q8N423); assay: monoclonal phage ELISA, 100 ng coated antigen per well, BSA as parallel negative control, OD450
[2] = target: 白细胞免疫球蛋白样受体亚家族B成员2 (LILRB2, Leukocyte Immunoglobulin Like Receptor B2) (UniProt Q8N423); assay: phage ELISA round 1 on coated LILRB2, anti-M13-HRP detection, OD450
[3] = target: 白细胞免疫球蛋白样受体亚家族B成员2 (LILRB2, Leukocyte Immunoglobulin Like Receptor B2) (UniProt Q8N423); assay: competitive phage ELISA round 2 on coated LILRB2, HLA amount raised 4-fold

Measured: binding

B1: 白细胞免疫球蛋白样受体亚家族B成员2(LILRB2)的羊驼纳米抗体, SEQ ID No.4 (VHH)
VHH: AVQLVESGGGLVQVGGSLRLSCAASGRAFSGYYMGWFRQAPGKERVFVAVISWTGAFTYYADGARGRFTISRDTAKNTVYLQVNSLKPEDTAIYYCAAVEGRRSILPRDYNYWGQGTQVTVSS
binds: all assays above

B2: 白细胞免疫球蛋白样受体亚家族B成员2(LILRB2)的羊驼纳米抗体, SEQ ID No.3 (VHH)
VHH: AVQLVESGGGLVQAGGSLRLSCAASGFSLEYYSIAWFRQAPGKEREGVSCINLSGDTREYLDSVKGRFAISRDNAKNTVYLQMNSLKPEDTAVYYCAAAWGGVVASFLDEYEYWGQGTQVTVSS
binds: all assays above
